Experimental data: article PMC11443449, “NudCL2 is required for cytokinesis by stabilizing RCC2 with Hsp90 at the midbody” (Protein & Cell, 2024)
No constants are given. Whether binding was seen depends on the method and setting. Binding seen in cells or lysates may run through a third protein. Some binding calls cover weakened binding; strength is not graded here.

Protein sequences, listed by entry. Tags and fused reporters are not part of them.
UniProt Q9P258: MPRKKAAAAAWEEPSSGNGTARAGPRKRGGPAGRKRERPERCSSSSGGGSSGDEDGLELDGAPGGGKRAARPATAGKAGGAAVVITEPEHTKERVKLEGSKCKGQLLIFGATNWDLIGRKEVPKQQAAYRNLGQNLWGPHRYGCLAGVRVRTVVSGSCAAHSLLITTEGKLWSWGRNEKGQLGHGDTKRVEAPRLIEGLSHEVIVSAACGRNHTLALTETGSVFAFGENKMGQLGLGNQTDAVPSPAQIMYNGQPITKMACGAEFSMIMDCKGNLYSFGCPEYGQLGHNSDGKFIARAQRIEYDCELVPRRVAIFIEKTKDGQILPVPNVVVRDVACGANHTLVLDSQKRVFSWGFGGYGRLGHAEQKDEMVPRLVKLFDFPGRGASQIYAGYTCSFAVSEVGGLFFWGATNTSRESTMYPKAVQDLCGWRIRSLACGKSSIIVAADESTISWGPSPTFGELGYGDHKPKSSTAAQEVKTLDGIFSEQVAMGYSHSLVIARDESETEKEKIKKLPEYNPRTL

Key:
[1] = target: T1, NudCL2 expressed from a transfected vector (Figure 3P) (human) (UniProt Q8WVJ2); test: co-IP; cells transfected with the indicated vectors; immunoprecipitation with anti-Flag antibody; Western blot
T1 sequence: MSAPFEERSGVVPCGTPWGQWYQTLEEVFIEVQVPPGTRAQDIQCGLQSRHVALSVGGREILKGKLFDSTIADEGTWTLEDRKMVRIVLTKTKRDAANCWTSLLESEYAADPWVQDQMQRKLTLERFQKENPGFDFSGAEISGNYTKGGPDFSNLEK

[2] = target: T2, NudCL2 in cell lysate (human (in the paper's cell lines HEK-293, HEK-293T or HeLa; line not stated)) (UniProt Q8WVJ2); test: co-IP; in vivo, NudC family members tested with Hsp90 and RCC2 (Fig. S10A-C); legend not shown
T2 sequence: T1 sequence

[3] = target: T2, NudCL2 in cell lysate (human (in the paper's cell lines HEK-293, HEK-293T or HeLa; line not stated)); test: co-IP; cells lysed in TBSN buffer (20 mmol/L Tris pH 8.0, 150 mmol/L NaCl, 0.5% Nonidet P-40, 5 mmol/L EGTA, 1.5 mmol/L EDTA); immunoprecipitation with the indicated antibodies; Western blot

Substance	binding [1]	binding [2]	binding [3]
RCC2 expressed from a transfected vector (Figure 3P) (from UniProt Q9P258 1-522)	binds	–	–
RCC2 in cell lysate (from UniProt Q9P258 1-522)	–	binds	binds
